# Source: paper PMC9549296
# Results are given in words; binding and its absence hold for the method and conditions named. For some of these results: A result given as binding can be weak or reduced; the word gives no strength.
# Columns and labels:
# Assay in all cases: two-hybrid; yeast strain Y2HGold; ORFs in PGBKT7, ATP synthase subunits in pGADT7; cotransformants on SD/-Leu/-Trp, serial dilutions on SD/-Leu/-Trp/-His-Ade, 30°C, 3-5 days
# [1] = molecular target: ORF222a protein (B. oleracea var. capitata (C5-type CMS line; cytoplasm derived from B. napus)) (UniProt Q6YSS0)
# [2] = molecular target: ORF188a protein (B. oleracea var. capitata (C5-type CMS line; cytoplasm derived from B. napus))
# [3] = molecular target: ORF261a protein (B. oleracea var. capitata (C5-type CMS line; cytoplasm derived from B. napus))
Molecule,binding [1],binding [2],binding [3]
ATP17 homolog ATP17-2 (Bo7g114140) (from UniProt A0A0D3DGW6),binds,–,–
"ATP4 (F1F0-ATP synthase subunit b) (protein, UniProt G4XYF7 1-192) MRLSSTNMDARKMLFAAILSICALSSKKISIYNEEMIVALCFIGFIIFSRKSLGTTFKATLDGRIQAIQEESQQFPNPNEVVPPESNEQQRLLRISLRICGTVVESLPMARCAPKCEKTVQALLCRNLNVKSATLTNATSSRRIRFQDDLVTKFYTLVGNQFAYSSISKAERVEFIRESLVVLRMVRGGGFS",no binding,no binding,no binding
"ATP6 (F1F0-ATP synthase subunit a) (protein, UniProt G4XYF6 1-261) MNQIGLVAQSPLDQFEIVPLIPMNIGNFYFSFTNPSLFMLLTLSFFLLLIHFITKKGGGNLVPNAWQSLVELLYDFVLNLVKEQIGGLSGNVKQMFFPCILVTFLFLLFCNLQGMIPYSFTVTSHFLITLALSFSIFIGITIVGFQRHGLHFFSFLLPAGVPLPLAPFLVLLELISYCFRALSLGIRLFANMMAGHSLVKILSGFAWTMLCMNEIFYFIGALGPLFIVLALTGLELGVAILQAYVFTILICIYLNDAINLH",no binding,no binding,no binding
"ATP8 (F1F0-ATP synthase subunit 8) (protein, UniProt G4XYH7 1-158) MPQLDKFTYFSQFFWLCLFFFTFYIFICNDGDGVLGISRILKLRNQLLSHRGKTIQSKDPNSLEDLLRKGFSTGVSYMYASLFEVSQWCKAVDLLGKRRKITLISCFGEISGSRGMERNILYNISKSSPSNTGRWITCRNCRNDIMLIHVVHGQGSIK",no binding,no binding,no binding
